The results in this text go back to paper doi:10.1101/2025.02.14.638310 (bioRxiv, 2025).

The chains behind the UniProt entries cited, without tags or fusion partners. Residues count along the entry.
UniProt Q8I6T1, residues 28-426: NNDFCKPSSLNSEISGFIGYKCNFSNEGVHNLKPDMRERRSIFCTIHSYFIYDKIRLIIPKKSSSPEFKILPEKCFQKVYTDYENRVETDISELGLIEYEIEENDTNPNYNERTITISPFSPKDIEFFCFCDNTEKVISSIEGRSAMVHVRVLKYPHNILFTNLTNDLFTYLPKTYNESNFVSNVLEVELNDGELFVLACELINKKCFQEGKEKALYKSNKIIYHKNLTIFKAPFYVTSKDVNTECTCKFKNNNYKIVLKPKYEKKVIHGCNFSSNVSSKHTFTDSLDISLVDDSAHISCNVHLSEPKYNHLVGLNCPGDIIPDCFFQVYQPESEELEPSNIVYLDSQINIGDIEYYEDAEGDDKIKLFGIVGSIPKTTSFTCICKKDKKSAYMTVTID

These are yes or no findings as the source states them, for the method shown. Some results given as binding are weak or reduced against the parent protein; the word gives no strength.

Test [1] has as its target Pfs48/45 (endogenous) (Plasmodium falciparum (endogenous in NF54 gametocytes and gametes)) (UniProt Q8I6T1). Nature of the test: western blot of saponin-treated gametocytes (membrane retention). On the technique in general: In western blotting, separated proteins are transferred to a membrane and probed.
The target is the same in test [2]. Nature of the test: flow cytometry on cells. On the technique in general: In flow cytometry, cells or beads pass a laser one at a time.

For the substance “Pfs230^ΔCterm (Pfs230 lacking the last 29 C-terminal residues, res. 3107-3135) (from UniProt P68874 21-3106) (domain or fragment)”, the binding result in test [1] and in test [2] was “no binding” each time.
Consider “Pfs230 (endogenous, wildtype NF54 parasites) (from UniProt P68874 21-3135)”, for which, in test [2], the binding result is recorded as “binds”.
